Results as given in publication PMC12339376.
These are yes or no findings as the source states them, for the method shown. In cells and extracts the contact can be indirect. Some entries that bind do so weakly or less than the wild type. Tags and fused reporters may be left off the sequences shown.

T1: AFG2 Interacting Ribosome Maturation Factor (AIRIM), wild type, Flag-HA-tagged (human) (UniProt Q9NX04)
T1 sequence: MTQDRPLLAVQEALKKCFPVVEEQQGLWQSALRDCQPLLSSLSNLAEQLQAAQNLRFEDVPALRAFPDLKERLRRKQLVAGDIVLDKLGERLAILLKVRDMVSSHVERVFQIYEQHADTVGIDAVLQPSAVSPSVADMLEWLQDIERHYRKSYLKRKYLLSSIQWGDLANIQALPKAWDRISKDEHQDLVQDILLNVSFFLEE

B1: Cyclin-Dependent Kinase 2 Interacting Protein (CINP) (protein, UniProt Q9BW66 1-212)
chain: MEAKTLGTVTPRKPVLSVSARKIKDNAADWHNLILKWETLNDAGFTTANNIANLKISLLNKDKIELDSSSPASKENEEKVCLEYNEELEKLCEELQATLDGLTKIQVKMEKLSSTTKGICELENYHYGEESKRPPLFHTWPTTHFYEVSHKLLEMYRKELLLKRTVAKELAHTGDPDLTLSYLSMWLHQPYVESDSRLHLESMLLETGHRAL
B2: AFG2 AAA ATPase Homolog A (AFG2A) (protein, UniProt Q8NB90 1-893)
chain: MSSKKNRKRLNQSAENGSSLPSAASSCAEARAPSAGSDFAATSGTLTVTNLLEKVDDKIPKTFQNSLIHLGLNTMKSANICIGRPVLLTSLNGKQEVYTAWPMAGFPGGKVGLSEMAQKNVGVRPGDAIQVQPLVGAVLQAEEMDVALSDKDMEINEEELTGCILRKLDGKIVLPGNFLYCTFYGRPYKLQVLRVKGADGMILGGPQSDSDTDAQRMAFEQSSMETSSLELSLQLSQLDLEDTQIPTSRSTPYKPIDDRITNKASDVLLDVTQSPGDGSGLMLEEVTGLKCNFESAREGNEQLTEEERLLKFSIGAKCNTDTFYFISSTTRVNFTEIDKNSKEQDNQFKVTYDMIGGLSSQLKAIREIIELPLKQPELFKSYGIPAPRGVLLYGPPGTGKTMIARAVANEVGAYVSVINGPEIISKFYGETEAKLRQIFAEATLRHPSIIFIDELDALCPKREGAQNEVEKRVVASLLTLMDGIGSEVSEGQVLVLGATNRPHALDAALRRPGRFDKEIEIGVPNAQDRLDILQKLLRRVPHLLTEAELLQLANSAHGYVGADLKVLCNEAGLCALRRILKKQPNLPDVKVAGLVKITLKDFLQAMNDIRPSAMREIAIDVPNVSWSDIGGLESIKLKLEQAVEWPLKHPESFIRMGIQPPKGVLLYGPPGCSKTMIAKALANESGLNFLAIKGPELMNKYVGESERAVRETFRKARAVAPSIIFFDELDALAVERGSSLGAGNVADRVLAQLLTEMDGIEQLKDVTILAATNRPDRIDKALMRPGRIDRIIYVPLPDAATRREIFKLQFHSMPVSNEVDLDELILQTDAYSGAEIVAVCREAALLALEEDIQANLIMKRHFTQALSTVTPRIPESLRRFYEDYQEKSGLHTL
B3: AFG2 AAA ATPase Homolog B (AFG2B) (protein, UniProt Q9BVQ7 1-753)
chain: MAPDSDPFPEGPLLKLLPLDARDRGTQRCRLGPAALHALGARLGSAVKISLPDGGSCLCTAWPRRDGADGFVQLDPLCASPGAAVGASRSRRSLSLNRLLLVPCPPLRRVAVWPVLRERAGAPGARNTAAVLEAAQELLRNRPISLGHVVVAPPGAPGLVAALHIVGGTPSPDPAGLVTPRTRVSLGGEPPSEAQPQPEVPLGGLSEAADSLRELLRLPLRYPRALTALGLAVPRGVLLAGPPGVGKTQLVRAVAREAGAELLAVSAPALQGSRPGETEENVRRVFQRARELASRGPSLLFLDEMDALCPQRGSRAPESRVVAQVLTLLDGASGDREVVVVGATNRPDALDPALRRPGRFDREVVIGTPTLKQRKEILQVITSKMPISSHVDLGLLAEMTVGYVGADLTALCREAAMHALLHSEKNQDNPVIDEIDFLEAFKNIQPSSFRSVIGLMDIKPVDWEEIGGLEDVKLKLKQSIEWPLKFPWEFVRMGLTQPKGVLLYGPPGCAKTTLVRALATSCHCSFVSVSGADLFSPFVGDSEKVLSQIFRQARASTPAILFLDEIDSILGARSASKTGCDVQERVLSVLLNELDGVGLKTIERRGSKSSQQEFQEVFNRSVMIIAATNRPDVLDTALLRPGRLDKIIYIPPPDHKGRLSILKVCTKTMPIGPDVSLENLAAETCFFSGADLRNLCTEAALLALQENGLDATTVKQEHFLKSLKTVKPSLSCKDLALYENLFKKEGFSNVEGI

What follows are binders tested against T1, AFG2 Interacting Ribosome Maturation Factor (AIRIM), wild type, Flag-HA-tagged (human) (assay: co-IP; Flag-HA-AIRIM (wild type or variant) transiently expressed in HEK293T for 48 h; whole-cell lysate in 100 mM NaCl, 50 mM Tris-HCl pH 7.4, 0.2% NP-40, 10% glycerol, 1 mM MgCl2, 1 mM DTT with Benzonase; anti-Flag M2-agarose 3 h at 4 °C, Flag peptide elution, western blot for AFG2A, AFG2B, CINP, POLD3).

binding, binds:
B1
B2
B3
